Assay results published in patent publication US20110294144A1, “SCREENING METHOD” (priority 2008, published 2011).
For at least one compound, name, drawing or mass did not settle the structure.

Test system: rat primary nerve cells infected with PRKX overexpression lentivirus
Experiment: Neurodegeneration in rat primary nerve cells infected with PRKX overexpression lentivirus
Type: cell-based
Conditions: forskolin 10 μM, 2 days; DIV14 rat primary nerve cells, PRKX lentivirus MOI=1

C=C[C@@]1(C)CC(=O)[C@]2(O)[C@@]3(C)[C@@H](O)CCC(C)(C)[C@@H]3[C@H](O)[C@H](OC(C)=O)[C@@]2(C)O1 [forskolin] was tested. Which “neurodegeneration by PRKX expression” value did it give?
The value was “accelerated”.
